Experimental data from article PMC7259579.
These are yes or no findings as the source states them, for the method shown. In cells and extracts the contact can be indirect.

Protein sequences, listed by entry. Tags and fused reporters are not part of them.
UniProt P31000: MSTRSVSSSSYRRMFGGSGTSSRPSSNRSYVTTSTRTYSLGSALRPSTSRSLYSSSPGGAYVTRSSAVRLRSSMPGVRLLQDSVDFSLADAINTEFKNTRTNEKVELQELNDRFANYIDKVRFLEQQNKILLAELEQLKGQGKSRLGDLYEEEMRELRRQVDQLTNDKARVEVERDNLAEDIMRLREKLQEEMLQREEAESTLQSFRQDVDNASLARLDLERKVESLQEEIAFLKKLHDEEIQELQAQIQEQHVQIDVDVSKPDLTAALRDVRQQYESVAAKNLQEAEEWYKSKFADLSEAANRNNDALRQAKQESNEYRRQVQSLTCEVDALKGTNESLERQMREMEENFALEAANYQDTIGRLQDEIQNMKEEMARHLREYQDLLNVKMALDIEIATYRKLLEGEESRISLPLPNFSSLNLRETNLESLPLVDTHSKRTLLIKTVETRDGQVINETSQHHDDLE

Tests used:
[1] = target: vimentin (rat (endogenous in sciatic nerve)) (UniProt P31000); assay: FRET or BRET; acceptor-photobleaching FRET (APb-FRET) by confocal microscopy on fixed, immunolabelled rat sciatic nerve fibers; MAG as donor (Alexa-Fluor 488 secondary antibody), vimentin as acceptor (Alexa-Fluor 555 secondary antibody)
[2] = target: vimentin (rat (endogenous in sciatic nerve)) (UniProt P31000); assay: FRET or BRET; sensitized emission FRET (PFRET) by confocal microscopy on fixed, immunolabelled rat sciatic nerve fibers; MAG as donor (Alexa-Fluor 488 secondary antibody), vimentin as acceptor (Alexa-Fluor 555 secondary antibody); E% against acceptor level tells random from clustered signal

B1: Myelin Associated Glycoprotein (protein, UniProt P07722 20-626)
chain: GHWGAWMPSSISAFEGTCVSIPCRFDFPDELRPAVVHGVWYFNSPYPKNYPPVVFKSRTQVVHESFQGRSRLLGDLGLRNCTLLLSTLSPELGGKYYFRGDLGGYNQYTFSEHSVLDIINTPNIVVPPEVVAGTEVEVSCMVPDNCPELRPELSWLGHEGLGEPTVLGRLREDEGTWVQVSLLHFVPTREANGHRLGCQAAFPNTTLQFEGYASLDVKYPPVIVEMNSSVEAIEGSHVSLLCGADSNPPPLLTWMRDGMVLREAVAESLYLDLEEVTPAEDGIYACLAENAYGQDNRTVELSVMYAPWKPTVNGTVVAVEGETVSILCSTQSNPDPILTIFKEKQILATVIYESQLQLELPAVTPEDDGEYWCVAENQYGQRATAFNLSVEFAPIILLESHCAAARDTVQCLCVVKSNPEPSVAFELPSRNVTVNETEREFVYSERSGLLLTSILTLRGQAQAPPRVICTSRNLYGTQSLELPFQGAHRLMWAKIGPVGAVVAFAILIAIVCYITQTRRKKNVTESPSFSAGDNPHVLYSPEFRISGAPDKYESEKRLGSERRLLGLRGEPPELDLSYSHSDLGKRPTKDSYTLTEELAEYAEIRVK
binding [1]: no binding
binding [2]: no binding
